Data as given in PubChem BioAssay AID1259308 (NCATS, 2017).
This is one part, drawn at random, of about 59,000 deposited reagents. About 1,510 of them (2.6%) count as active. 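Calls use total luciferase alone and ignore viability, so some active siRNAs may act by altering cell number.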 Unmarked entries are inactive. Reagents against one gene are numbered here.

Purpose: 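Candidate targets for better recombinant protein yield in mammalian cells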 (primary screen)
Cells: human HEK293 embryonic kidney cells stably expressing firefly luciferase (HEK-CMV-Luc2-Hygro)
Reagent: single siRNA against human genes, 0.8 pmol siRNA per well
Time to read-out: 72 h
Detection: 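Luciferase light (ONE-Glo) measured on one replicate plate set and viability (CellTiter-Glo) on the other, scaled to a negative control siRNA, with robust z-scores and luciferase per cell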
Reading the numbers: total luciferase, z-score and total luciferase, % of control: higher = more reporter protein produced; luciferase per cell, z-score: higher = more reporter output per viable cell; viable cells, % of control: higher = more viable cells
Hit rule: 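An siRNA counts as active if its total luciferase robust z-score exceeds 3; genes with two or more such siRNAs out of three were retested with fresh siRNAs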
Calls: active = raised luciferase; inactive = no rise

no.	gene symbol	reagent no.	total luciferase, z-score	total luciferase, % of control	luciferase per cell, z-score	viable cells, % of control
1	GRAMD4	1	-1.2	58	-1.39	93.5
2	GRAMD4	2	1.9	120	1.85	82.3
3	GRAMD4	3	0.072	83.3	-0.586	109
4	TMEM229B	1	2.72	136	3.49	60.7
5	TMEM229B	2	-2.43	33.6	-2.38	70.2
6	TMEM229B	3	-2.09	40.3	-1.11	60.4
7	PTGDR2	1	-3.11	19.9	-0.462	25.2
8	PTGDR2	2	0.973	101	0.742	93.1
9	PTGDR2	3	0.0369	82.6	-0.352	101
10	CYSTM1	1	-0.714	67.7	-0.642	89.6
11	CYSTM1	2	0.528	92.4	0.00621	103
12	CYSTM1	3	0.231	86.5	-0.252	103
13	CYP20A1	1	-0.266	76.6	0.142	82.5
14	CYP20A1	2	-1.2	58.1	-1.46	95.4
15	CYP20A1	3	-0.62	69.5	-1.2	107
16	TRDMT1	1	0.214	86.1	-0.338	105
17	TRDMT1	2	0.4	89.8	-0.316	109
18	TRDMT1	3	0.833	98.5	0.656	92.6
19	EML3	1	-0.289	76.1	0.514	74.3
20	EML3	2	-1.12	59.7	-0.973	86.2
21	EML3	3	-0.986	62.3	-0.598	81.5

The list goes on, starting with the last 2 of the part before.
no.	gene symbol	reagent no.	total luciferase, z-score	total luciferase, % of control	luciferase per cell, z-score	viable cells, % of control
20	EML3	2	-1.12	59.7	-0.973	86.2
21	EML3	3	-0.986	62.3	-0.598	81.5
22	GLTPD2	1	-0.0951	80	0.115	86.7
23	GLTPD2	2	0.304	87.9	0.108	95.5
24	GLTPD2	3	-0.392	74.1	-0.394	91.8
25	KRTAP5-5	1	5.67 (active)	195	4.21	71.7
26	KRTAP5-5	2	0.255	87	0.861	77.4
27	KRTAP5-5	3	0.663	95.1	0.426	95
28	ERMARD	1	0.945	101	0.395	101
29	ERMARD	2	0.368	89.2	-0.231	106
30	ERMARD	3	-0.251	76.9	-1.04	113
31	ECPAS	1	0.659	95	0.651	89.4
32	ECPAS	2	-0.251	76.9	-0.259	92
33	ECPAS	3	-0.472	72.5	-0.733	98.3
34	ABCF1	1	0.282	87.5	0.185	93.1
35	ABCF1	2	-0.0178	81.5	-0.496	104
36	ABCF1	3	-0.601	69.9	-0.234	83.1
37	DENND1A	1	-0.17	78.5	-0.352	96.2
38	DENND1A	2	-0.187	78.2	-0.256	93.4
39	DENND1A	3	0.547	92.8	-0.43	116
